In US20070232520A1:
Results are given in words; binding and its absence hold for the method and conditions named. Binding seen in cells or lysates may run through a third protein. Some entries that bind do so weakly or less than the wild type.

Sequences of proteins named here, by UniProt entry; tags and fusion partners are left off. Residues count along the entry.
UniProt P20333, residues 23-461: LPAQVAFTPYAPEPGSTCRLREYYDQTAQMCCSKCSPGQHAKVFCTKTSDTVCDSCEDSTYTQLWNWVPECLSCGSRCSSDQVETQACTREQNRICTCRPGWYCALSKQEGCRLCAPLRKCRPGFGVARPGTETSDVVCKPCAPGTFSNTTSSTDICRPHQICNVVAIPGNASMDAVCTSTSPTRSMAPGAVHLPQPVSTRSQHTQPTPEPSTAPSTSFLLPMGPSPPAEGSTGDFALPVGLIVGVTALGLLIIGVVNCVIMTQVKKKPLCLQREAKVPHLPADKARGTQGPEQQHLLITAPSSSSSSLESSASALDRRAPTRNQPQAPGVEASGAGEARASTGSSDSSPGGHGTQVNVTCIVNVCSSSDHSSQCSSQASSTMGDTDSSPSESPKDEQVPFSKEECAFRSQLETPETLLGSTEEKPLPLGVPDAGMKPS

Columns and labels:
[1] = molecular target: p75 (p75 TNF-R expressed in transfected HeLa cells) (UniProt P20333); assay: coprecipitation from transfected HeLa cells
[2] = molecular target: p75 (p75 TNF-R expressed in transfected HeLa cells) (UniProt P20333); assay: coprecipitation (coIP) with p75 from transfected HeLa cells

B1: E19 (p75IC-binding protein encoded by clone E19) (protein)
chain: EAAGRERERTLEYAEAHAFKSPSKENKKKDKDMLEDKFKSNNLEREQEQLDRIVKESGGKLTRRLVNSQCEFERRKPDGTTTLGLLHPVDPIVGEPGYCPVRLGMTTGRLQSGVNTLQGFKEDKRNKVTPVLYLELWAPTVLYAPHYDSTFANYQQGLI
[1]
  binding: binds
[2]
  binding: binds

B2: protein encoded by the 230 clone (protein)
chain: GPIREAGLAGWLALGCSGPPAEAAGGAGEPWPQHSGKGQLAGRNAWVKKRKAPRENSPGVRSCRASGRASRPHGDPFLLTLPRARHPVTLNVTIQVSLKQRNVRFNTPFRRGEN
[1]
  binding: binds
[2]
  binding: binds
